Measurements published in patent publication US20070275981A1, “(Hetero)Cyclycarboxamides for Controlling Pathogenic Fungi” (priority 2004, published 2007).
Some entries share one result that the patent states for a list of compounds.

Assays:
Plasmopara viticola [1] = assay: Activity against Peronospora of grapevines caused by Plasmopara viticola (Use Example 1, inoculation the next day); format: in vivo, Plasmopara viticola on potted grapevines; conditions: 250 ppm active compound, spray to runoff, inoculated next day; untreated plants 80% infected
Description: For the use examples 1 to 3, the active compounds were prepared as a stock solution comprising 0.25% by weight of active compound in acetone or dimethyl sulfoxide (DMSO). 1% by weight of the emulsifier Uniperol® EL (wetting agent having emulsifying and dispersant action based on ethoxylated alkylphenols) was added to this solution, and the mixture was diluted with water to the desired concentration.
Leaves of potted grapevines were sprayed to runoff point with an aqueous suspension having the concentration of active compounds stated below. The next day, the undersides of the leaves were inoculated with an aqueous sporangia suspension of Plasmopara viticola. The grapevines were then initially placed in a water vapor-saturated chamber at 24° C. for 48 hours and then in a greenhouse at temperatures between 20 and 30° C. for 5 days. After this time, the plants were again placed in a humid chamber for 16 hours to promote sporangiophore eruption. The extent of the development of the infection on the undersides of the leaves was then determined visually.

Plasmopara viticola [2] = assay: Activity against Peronospora of grapevines caused by Plasmopara viticola, 7 day protective application (Use Example 5); format: in vivo, Plasmopara viticola on potted grapevines; conditions: 250 ppm active compound, untreated plants 50% infected
Description: For the use examples 4 to 7, the active compounds were prepared as a stock solution comprising 25 mg of active compound which was made up with a mixture of acetone and/or DMSO and the emulsifier Uniperol® EL in a volume ratio of solvent/emulsifier of 99:1 to 10 ml. The mixture was then made up to 100 ml with water. This stock solution was diluted to the active compound concentration stated below using the solvent/emulsifier/water mixture described.
Leaves of potted grapevines were sprayed to runoff point with an aqueous suspension having the concentration of active compound stated below. To be able to assess the persistency of the substances, the plants were, after the spray coating had dried on, placed in a greenhouse for 7 days. The undersides of the leaves were then inoculated with an aqueous sporangia suspension of Plasmopara viticola. The grapevines were then placed initially for 48 hours in a water vapor-saturated chamber at 24° C. and then for 5 days in the greenhouse at temperatures between 20 and 30° C. After this time, the plants were again placed in a humid chamber for 16 hours, to accelerate sporangiophore eruption. The extent of the development of the infection on the undersides of the leaves was then determined visually.

Puccinia recondita = assay: Curative activity against brown rust of wheat caused by Puccinia recondita (Use Example 2); format: in vivo, Puccinia recondita on wheat seedlings cultivar Kanzler; conditions: 250 ppm active compound, curative spray one day after inoculation, 7 days; untreated plants 90% infected
[3] = test system: Pyrenophora [syn. Drechslera] teres; assay: Activity against net blotch of barley caused by Pyrenophora teres, 1 day protective application (Use Example 4); format: in vivo, Pyrenophora teres on barley seedlings; conditions: 250 ppm active compound, 6 days, untreated plants 90% affected

SMILES: Cc1ncsc1C(=O)Nc1cc(C(F)(F)F)nn1-c1ccc(Br)cc1 [example 28]
- infection (Plasmopara viticola [1]): at most 10%

SMILES: Cc1ncsc1C(=O)Nc1cc(C(F)(F)F)nn1-c1ccc(Cl)cc1 [example 27]
- infection (Plasmopara viticola [1]): at most 10%

SMILES: Cc1nc(C(F)(F)F)c(C(=O)Nc2cc(C(F)(F)F)nn2-c2ccc(I)cc2)s1 [example 8]
- infection (Plasmopara viticola [2]): at most 10%

SMILES: O=C(Nc1cc(C(F)(F)F)nn1-c1ccc(I)cc1)c1cccnc1Cl [example 3]
- infection (Puccinia recondita): at most 10%
- infection (infected leaf area) [3]: at most 10%
